Measurements as given in paper PMC6558801.
Results are given in words; binding and its absence hold for the method and conditions named. In cells and extracts the contact can be indirect. Some entries that bind do so weakly or less than the wild type. For some of these results: Where a sequence is shown, tags or fusion partners need not be part of it. One block for each molecule: values may come before it.

Legend:
[1] = target: T1, endogenous PLEK2 (pleckstrin-2) of NOZ cells (human (endogenous in NOZ)) (UniProt Q9NYT0); experiment: co-IP; endogenous proteins in NOZ cell lysate, anti-PLEK2 and reciprocal anti-EGFR immunoprecipitation, protein A beads
T1 sequence: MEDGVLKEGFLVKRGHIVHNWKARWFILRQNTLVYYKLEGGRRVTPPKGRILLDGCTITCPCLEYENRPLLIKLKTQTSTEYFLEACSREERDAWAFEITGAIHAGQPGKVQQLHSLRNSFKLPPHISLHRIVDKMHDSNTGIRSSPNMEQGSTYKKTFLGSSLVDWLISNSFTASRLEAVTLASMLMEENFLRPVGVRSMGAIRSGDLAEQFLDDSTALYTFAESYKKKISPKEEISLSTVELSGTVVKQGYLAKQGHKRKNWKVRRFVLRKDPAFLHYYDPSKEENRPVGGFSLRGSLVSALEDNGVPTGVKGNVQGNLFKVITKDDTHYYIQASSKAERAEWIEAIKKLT

[2] = target: EGFR (epidermal growth factor receptor), overexpressed in 293T cells (UniProt P00533); experiment: co-IP; 293T cells overexpressing Flag-PLEK2 and EGFR, IP lysis buffer, antibodies and protein A beads 4 h at 4 °C; also after 50 ng/mL EGF for the indicated times (more PLEK2 bound after 10 or 30 min)
[3] = target: endogenous EGFR (epidermal growth factor receptor) of NOZ cells (human (endogenous in NOZ)) (UniProt P00533); experiment: co-IP; endogenous proteins in NOZ cell lysate, anti-PLEK2 and reciprocal anti-EGFR immunoprecipitation, protein A beads
[4] = target: EGFR (epidermal growth factor receptor), overexpressed in 293T cells (UniProt P00533); experiment: co-IP; 293T cells co-expressing Flag-c-CBL, EGFR and PLEK2 (increasing amounts of Myc-PLEK2), immunoprecipitation with Flag antibody

B1: Flag-tagged PLEK2 (pleckstrin-2), overexpressed in 293T cells (protein, UniProt Q9NYT0 1-353)
chain: T1 sequence
binding [2]: binds

B3: Myc-PLEK2, overexpressed in 293T cells (protein, UniProt Q9NYT0 1-353)
chain: T1 sequence
binding [4]: binds

Next, values leading:

binding [1]: binds
Molecule: endogenous EGFR (epidermal growth factor receptor) of NOZ cells (from UniProt P00533 25-1210)

binding [3]: binds
B2: endogenous PLEK2 (pleckstrin-2) of NOZ cells (protein, UniProt Q9NYT0 1-353)
chain: T1 sequence
